Experimental data from publication PMC10803725.

Target: OsBAG6-2 × FLAG (rice (Oryza sativa, Kitaake))
Assay: affinity purification with mass spectrometry; total protein of wild-type Kitaake and two independent CsVpro:OsBAG6-2 × FLAG lines in IP buffer (2 mM DTT, 150 mM NaCl, 100 mM Tris-HCl pH 7.5, 5 mM EGTA, 0.5% Triton X-100, 5 mM EDTA) on anti-FLAG M2 magnetic beads, 4 °C, 3 h

binding	Binder
binds	OsPhyB (receptor, UniProt Q10MG9 1-1171) MASGSRATPTRSPSSARPAAPRHQHHHSQSSGGSTSRAGGGGGGGGGGGGGAAAAESVSKAVAQYTLDARLHAVFEQSGASGRSFDYTQSLRASPTPSSEQQIAAYLSRIQRGGHIQPFGCTLAVADDSSFRLLAYSENTADLLDLSPHHSVPSLDSSAVPPPVSLGADARLLFAPSSAVLLERAFAAREISLLNPLWIHSRVSSKPFYAILHRIDVGVVIDLEPARTEDPALSIAGAVQSQKLAVRAISRLQALPGGDVKLLCDTVVEYVRELTGYDRVMVYRFHEDEHGEVVAESRRNNLEPYIGLHYPATDIPQASRFLFRQNRVRMIADCHAAPVRVIQDPALTQPLCLVGSTLRSPHGCHAQYMANMGSIASLVMAVIISSGGDDDHNISRGSIPSAMKLWGLVVCHHTSPRCIPFPLRYACEFLMQAFGLQLNMELQLAHQLSEKHILRTQTLLCDMLLRDSPTGIVTQSPSIMDLVKCDGAALYYHGKYYPLGVTPTEVQIKDIIEWLTMCHGDSTGLSTDSLADAGYPGAAALGDAVSGMAVAYITPSDYLFWFRSHTAKEIKWGGAKHHPEDKDDGQRMHPRSSFKAFLEVVKSRSLPWENAEMDAIHSLQLILRDSFRDSAEGTSNSKAIVNGQVQLGELELRGIDELSSVAREMVRLIETATVPIFAVDTDGCINGWNAKVAELTGLSVEEAMGKSLVNDLIFKESEETVNKLLSRALRGDEDKNVEIKLKTFGPEQSKGPIFVIVNACSSRDYTKNIVGVCFVGQDVTGQKVVMDKFINIQGDYKAIVHNPNPLIPPIFASDENTCCSEWNTAMEKLTGWSRGEVVGKLLVGEVFGNCCRLKGPDALTKFMIVLHNAIGGQDCEKFPFSFFDKNGKYVQALLTANTRSRMDGEAIGAFCFLQIASPELQQAFEIQRHHEKKCYARMKELAYIYQEIKNPLNGIRFTNSLLEMTDLKDDQRQFLETSTACEKQMSKIVKDASLQSIEDGSLVLEKGEFSLGSVMNAVVSQVMIQLRERDLQLIRDIPDEIKEASAYGDQYRIQQVLCDFLLSMVRFAPAENGWVEIQVRPNIKQNSDGTDTMLFLFRFACPGEGLPPEIVQDMFSNSRWTTQEGIGLSICRKILKLMGGEVQYIRESERSFFHIVLELPQPQQAASRGTS
binds	GLO1 (enzyme, UniProt Q10CE4 1-369) MGEITNVMEYQAIAKQKLPKMIYDYYASGAEDEWTLKENREAFSRILFRPRILIDVSKIDMSATVLGFKISMPIMIAPSAMQKMAHPDGEYATARAASAAGTIMTLSSWATSSVEEVASTGPGIRFFQLYVYKDRNVVEQLVRRAERAGFKAIALTVDTPRLGRREADIKNRFVLPPYLTLKNFEGLDLAEMDKSNDSGLASYVAGQIDRTLSWKDVKWLQSITSLPILVKGVITAEDARLAVHSGAAGIIVSNHGARQLDYVPATISALEEVVTAAAGRIPVYLDGGVRRGTDVFKALALGAAGVFIGRPVVFALAAEGEAGVRNVLRMMREEFELTMALSGCTSLADITRAHIYTDADRLARPFPRL

No constants are given. Whether binding was seen depends on the method and setting. In cells and extracts the contact can be indirect. These calls come from enrichment with a bait or labelling near it, and not all partners need be listed.
